Experimental data: PubChem BioAssay AID2685 (National Center for Advancing Translational Sciences (NCATS), 2010)
About 2,100 (0.66%) of roughly 320,000 compounds were called active. Inconclusive means that the source gave no clear call. Such entries were picked first, then a sample of the others. Calls come from the whole dose curve; as a rule, active = well fitted inhibition curve with a large enough effect in the signal ratio, with a control signal flat (not every such curve was filed as active); inconclusive = small, poorly fitted or top-dose-only effect, or effect the other way, or a change in a side signal; inactive = flat fitted curve, though single readings scatter; the % refers to the signal ratio. A potency beside an inconclusive call is a rough fit, not a confirmed value.

Assay: qHTS Assay for Lipid Storage Modulators in Drosophila S3 Cells
Conditions: BODIPY lipid droplet fluorescence, 18-24 h, cells fed with added oleic acid; lipid storage change, negative = inhibition: at 46.1 µM (top of the series) unless noted
Method in brief: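 Drosophila S3 cells loaded with oleic acid (400 uM, as added) and compounds at several concentrations; lipid droplets imaged by 488-nm laser-scanning cytometry, 500–530 nm intensity and object ratio to cell channel. Percent activity normalized to 20 uM Triacsin C.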
% is set by controls: 0 for no effect and ±100 for the full control effect; potency is the fitted concentration of half-maximal effect.

Row | Structure (SMILES) | lipid storage change, negative = inhibition | Potency
1 | CCCCc1ncc(CN2CCC(n3nccc3NC(=O)c3ccccc3OC)CC2)[nH]1 | inconclusive: 10.6% | 
2 | NS(=O)(=O)c1ccc(C(=O)Nc2ccc(-c3nc4cccnc4s3)cc2)cc1 | inconclusive: 23.7% | 
3 | Cc1ccc(O)c(C(=O)c2cc(C#N)c(=O)n(C(C)c3ccccc3)c2)c1 (centres undefined) | inconclusive: -20.5% | 
4 | CCOC(=O)c1cc2c(=O)[nH]ccc2nc1C | inconclusive: -25% | 
5 | Cc1cc(C(F)(F)F)c2sc(N)nc2n1 | inconclusive: 80.3% | 
6 | CC1=[N+]([O-])C(C)(C)C(c2ccc(Br)cc2)=[N+]1[O-] | inconclusive: -22.1% | 
7 | Cc1cc2oc(=O)cc(CN3CCCc4ccccc43)c2cc1C | inconclusive: -18.1% | 
8 | Cc1nn(-c2ccc(Cl)cc2)c2[nH]c(=O)c(CNCc3ccc4c(c3)OCO4)cc12 | inconclusive: -58.3% | 
9 | Cc1ccc(-c2nc(N/N=C/c3ccncc3)c3ccccc3n2)cc1 |  | inconclusive: 29.1 µM [rising, single point]
10 | CN(C)CCCNC(=O)CCc1ncc(C(F)(F)F)cc1Cl | inconclusive: -45.1% | 
11 | COc1cc(/C=N/n2c(-c3n[nH]c4c3CCC4)n[nH]c2=S)ccc1O | inconclusive: 14.8% | 
12 | COc1ccc(C(C)(C)C)cc1NC(=O)COC(=O)C(C)C | inconclusive: -24.5% | 
13 | CCOC(=O)CNC(=O)CSc1nnc(C)c(=O)[nH]1 |  | inconclusive: 0.82 µM [falling, full curve, poor fit]
14 | CC(NC(=O)c1ccncc1)c1ccccc1 (centres undefined) |  | inconclusive: 3.66 µM [activator, partial curve]
15 | COc1cc2c(cc1OC)C(c1ccccc1[N+](=O)[O-])N(C(C)=O)CC2 (centres undefined) | inconclusive: 6.82% | 
16 | C/C(=N\NC(=O)c1cccnc1)c1c(O)cc(C)oc1=O |  | inconclusive: 14.6 µM [activator, single point]
17 | O=S(=O)(c1ccc(F)c(Cl)c1)N1CCCC1 | inconclusive: -64.5% | 
18 | C=C(C)COc1ccc(-c2[nH]ncc2-c2ccc(OC)cc2)c(O)c1 |  | inconclusive: 29.1 µM [cytotoxic, single point]
19 | Cc1ccc(NC(=O)[C@@H]2CCCN2C(=O)c2cccs2)cc1S(=O)(=O)N1CCCCC1 | inconclusive: 6.79% | 
20 | Cc1ccc2nc(-c3ccc(NS(=O)(=O)c4c(C)n(C)c(=O)n(C)c4=O)cc3)sc2c1 | inconclusive: 44.3% | 
21 | COC(=O)c1cc2c(ccn2-c2ccc(F)cc2)n1Cc1ccc(OC)cc1 | inconclusive: -35.1% | 
22 | CNC(=O)/C(C#N)=C/c1cccc(Oc2ccccc2)c1 | inconclusive: -57.3% | 
23 | O=C(N/N=C/c1ccco1)c1cc2ccccc2o1 | inconclusive: -16.8% | 
24 | COc1ccccc1NC(=O)Nc1ccnn1Cc1cccs1 | inconclusive: 40.6% | 
25 | O=C(OC[C@@H]1CCCN2CCCC[C@H]12)c1cc2ccccc2oc1=O | inconclusive: 5.79% | 
26 | COC(=O)C1=C(N)Oc2cc(N(C)C)ccc2C1c1ccccc1OC (centres undefined) | inconclusive: -5.33% | 
27 | Cc1cc(NC(=O)COC(=O)c2cc(S(=O)(=O)N(C)C)ccc2Cl)no1 | inconclusive: 21.4% | 

Row | Structure (SMILES) | lipid storage change, negative = inhibition | Potency
28 | CCn1c(COc2cccc(OC)c2)nnc1SCC(=O)N1CCOCC1 | inconclusive: 9.2% | 
29 | Cc1cc(Cl)ccc1NC(=O)CN1C(=O)C(=O)N(C2CCCC2)C1=O | inconclusive: 53.4% | 
30 | Cc1cc(C(=O)NCC(c2ccco2)N2CCCC2)c2ccccc2n1 (centres undefined) |  | inconclusive: 0.13 µM [falling, full curve, poor fit]
31 | Cn1c(C(=O)NCCN2CCOCC2)cc2sccc21 | inconclusive: 16.7% | 
32 | N#Cc1ccsc1NC(=O)CN1CCN(c2ccc(O)cc2)CC1 | inconclusive: 11.2% | 
33 | Cc1ccc(-c2cnc(SCCNC(=O)c3ccco3)[nH]2)cc1 | inconclusive | 
34 | O=c1c2ccccc2ncn1CCCSc1ccccc1 | inconclusive: -9.14% | 
35 | CSc1ccc(S(=O)(=O)N2CCC(C(=O)N3CCOCC3)CC2)cc1 | inconclusive: 46.2% | 
36 | CS(=O)(=O)N1CCCC(C(=O)NC2CCCCCCC2)C1 (centres undefined) |  | inconclusive: 32.6 µM [falling, single point]
37 | Cc1cc(OCC(=O)NCCO)cc(C)c1Cl |  | inconclusive: 2.31 µM [falling, partial curve]
38 | Nn1c(SCC(=O)N2CCCc3ccccc32)nnc1-c1ccc(Cl)cc1 | inconclusive: 17.6% | 
39 | COc1ccc(Cc2nnc(NC(=O)c3cccs3)s2)cc1 | inconclusive: 13.6% | 
40 | Cc1ccc(N(CC(=O)NCc2ccc(F)cc2)S(=O)(=O)c2c(C)nn(C)c2C)cc1 | inconclusive: 172% | 
41 | O=C(Nn1cc(C(=O)N2CCN(c3ccccc3F)CC2)c2ccccc2c1=O)c1cnccn1 | inconclusive: 111% | 
42 | CSc1nnc(NC(=O)c2nc(S(=O)(=O)Cc3ccccc3F)ncc2Cl)s1 | inconclusive: -54.3% | 
43 | Cc1c(Cc2ccccc2)c(=O)oc2cc(O)ccc12 | inconclusive: -11.8% | 
44 | O=S(=O)(NCCOCCNS(=O)(=O)c1ccccc1)c1ccccc1 | inconclusive: -27.8% | 
45 | CCc1nc2nc(C)c(NS(=O)(=O)c3cccs3)c(=O)n2[nH]1 |  | inconclusive: 29.1 µM [activator, single point]
46 | O=C(N/N=C/c1c(Cl)cccc1Cl)C(=O)NC1CC1 | inconclusive: -10.8% | 
47 | CN(C)c1ccc(C(C(=O)NC2CCCC2)N(C(=O)c2ccco2)C2CC2)cc1 (centres undefined) |  | inconclusive: 0.116 µM [falling, single point]
48 | CCC(C)N=Cc1c(Nc2ccccc2)nc2c(C)cccn2c1=O (centres undefined) | inconclusive: 26.9% | 
49 | Cn1c(N)c(C(=O)COC(=O)CC(NC(N)=O)c2ccc(Cl)cc2)c(=O)n(C)c1=O (centres undefined) | inconclusive: 39.2% | 
50 | O=C(O)CCCN1C(=O)/C(=C\C(Cl)=C\c2ccccc2)SC1=S | inconclusive: -18% | 
51 | CCOC(=O)Cn1nnnc1CN(CCc1ccccc1)Cc1cc2cc(CC)ccc2[nH]c1=O |  | inconclusive: 29.1 µM [activator, single point]
52 | Cc1ccc(-c2cc(C(F)(F)F)c(C#N)c(=O)[nH]2)cc1 | inconclusive: -27.8% | 
53 | CC(=O)c1ccc(N2CCN(C(=O)CCCc3nc4ccccc4s3)CC2)cc1 | inconclusive: 0.617% | 
54 | CCOC(=O)N1CCN(c2cc(N3CCN(CC)CC3)c(F)cc2[N+](=O)[O-])CC1C (centres undefined) | inconclusive: 398% | 

Row | Structure (SMILES) | lipid storage change, negative = inhibition | Potency
55 | O=C(NCCc1ccc(F)cc1)C1CCN(C(=O)Nc2ccccc2)CC1 |  | inconclusive: 2.06 µM [falling, partial curve]
56 | CCN(CC)CCCCCCCCOC(=O)c1cc(OC)c(OC)c(OC)c1 | inconclusive: -1.78% | 
57 | CCn1c(SCC(=O)Nc2nnc(C)s2)nnc1-c1ccco1 | inconclusive: -2.04% | 
58 | COc1ccc(C(=S)N2CCCCC2)cc1Br | inconclusive: -18% | 
59 | Cc1c(N=C/C=C2\N(C)c3ccccc3C2(C)C)c(=O)n(-c2ccccc2)n1C | inconclusive: 8.73% | 
60 | Cc1sc2ncnc(Nc3ccccc3)c2c1C |  | inconclusive: 23.1 µM [activator, single point]
61 | COc1ccc(-c2nsc3c(N4CCN(S(=O)(=O)c5ccccc5)CC4)ncnc23)cc1 | inconclusive: -189% | 
62 | O/N=C/c1cc(Br)ccc1OCc1cccc(F)c1 | inconclusive: -21.2% | 
63 | Cc1nc2c3ccccc3nc(NNC(=O)CCC(=O)NCCN3CCN(c4ccccc4)CC3)n2n1 |  | inconclusive: 29.1 µM [falling, single point]
64 | O=C(Nc1ccc(F)cc1)c1ccccc1Oc1ccc(C(F)(F)F)cc1[N+](=O)[O-] | inconclusive: -28.7% | 
65 | O=C(COC(=O)c1ccccc1-n1cnnn1)c1ccccc1 |  | inconclusive: 29.1 µM [activator, single point]
66 | N#Cc1cc2c(nc1SCC(=O)Nc1sc3c(c1C#N)CCC3)CCC2 | inconclusive: -13.4% | 
67 | CCN(CC)CCCNC(=O)CSc1nc(C)cc(C)n1 | inconclusive: 64.3% | 
68 | CCC(NC(=S)NCc1ccccc1)C(=O)O (centres undefined) |  | inconclusive: 20.6 µM [activator, single point]
69 | COc1cccc(-c2ccc3c(N)c(C(=O)NC4CC4)sc3n2)c1 | inconclusive: 9.26% | 
70 | COC(=O)[C@H](Cc1ccccc1)NC(=O)O[C@@H]1C(=O)c2cc(OC)ccc2O[C@H]1c1ccc(OC)c(Br)c1 | inconclusive: 33.8% | 
71 | COc1cc(CC(=O)OCC(=O)Nc2ccc(N3CCOCC3)cc2)cc(OC)c1OC | inconclusive: -12.6% | 
72 | CCc1ccc(-c2cc(C)no2)cc1S(=O)(=O)N1CC(=O)Nc2ccccc21 |  | active: 4.11 µM
73 | Cc1nn(Cc2c(Cl)cccc2Cl)c(C)c1NC(=O)CCCn1nc([N+](=O)[O-])c(Cl)c1C |  | inconclusive: 18.4 µM [falling, single point]
74 | Cn1c(=O)cc(OCCCC(=O)NCCN2CCN(c3ccccc3F)CC2)c2ccccc21 |  | inconclusive: 6.51 µM [activator, partial curve]
75 | CS(=O)(=O)c1ccc2nc(NC(=O)c3ccccc3)sc2c1 | inconclusive: -9.25% | 
76 | O=C(NCc1cc(C(F)(F)F)cc(C(F)(F)F)c1)C1CC(c2ccccc2[N+](=O)[O-])=NO1 (centres undefined) |  | inconclusive: 9.2 µM [falling, single point]
77 | CCOC(=O)c1c(S(=O)(=O)NCC(=O)N2CCN(c3ccccc3)CC2)c(C)n(C)c1C | inconclusive: 27.6% | 
78 | CCOC(=O)C(C)(C)NS(=O)(=O)c1ccc(Cl)c([N+](=O)[O-])c1 |  | active: 20.6 µM
79 | COCc1cc(C)nc2sc(C(=O)OC(C)C)c(N)c12 |  | inconclusive: 3.66 µM [activator, partial curve]

Molecules listed so far that have a CF3 group:
Row | Structure (SMILES) | lipid storage change, negative = inhibition | Potency
5 | Cc1cc(C(F)(F)F)c2sc(N)nc2n1 | inconclusive: 80.3% | 
10 | CN(C)CCCNC(=O)CCc1ncc(C(F)(F)F)cc1Cl | inconclusive: -45.1% | 
52 | Cc1ccc(-c2cc(C(F)(F)F)c(C#N)c(=O)[nH]2)cc1 | inconclusive: -27.8% | 
64 | O=C(Nc1ccc(F)cc1)c1ccccc1Oc1ccc(C(F)(F)F)cc1[N+](=O)[O-] | inconclusive: -28.7% | 
76 | O=C(NCc1cc(C(F)(F)F)cc(C(F)(F)F)c1)C1CC(c2ccccc2[N+](=O)[O-])=NO1 (centres undefined) |  | inconclusive: 9.2 µM [falling, single point]
